Some results come without the dose or concentration used.
System: Beagle dogs with asymptomatic/preclinical ACVIM stage B2 MMVD
Test: Exploratory laboratory study in dogs with asymptomatic/preclinical myxomatous mitral valve disease (MMVD)
Format: in vivo, dog
Settings: 2 subjects (Azul and Birdie); Day 59
Excerpt: Echocardiographic findings in dogs with MMVD stage B2 include degenerative valvular changes, increased left atrial dimension (LA/AO-ratio≥1.6), and increased left ventricular end-diastolic dimensions normalized to body weight (LVIDDN≥1.7) (Keene et al., 2019). For evaluation of survival time a severity score (MINE score) based on the echocardiographic variables above, the cardiac contractility (fractional shortening, FS %), and transmitral peak E-wave velocity was initiated (Vezzosi T et al., J Vet Intern Med. 2021, 35(3):1238-1244). The MINE score is associate with the survival time and provides therefore prognostic information. […]
Baseline assessments included body weight measurements, veterinary examinations, echocardiographs, urinalysis, blood collections for hematology, biochemistry, BHB, NT-proBNP, cTnI, and erythropoietin analysis as well as radiographs to assess heart size, pulmonary edema, and congestion. […] General health observations are conducted twice daily, and body weights measured approximately every 3 weeks.
Additionally, the “The Mitral Insufficiency Echocardiographic” score, a severity classification of myxomatous mitral valve disease (MMVD) in dogs (MINE score) was calculated (Vezzosi et al., 2021). […]

Structure (SMILES): N#Cc1ccc([C@@H]2O[C@H](CO)[C@@H](O)[C@H](O)[C@H]2O)cc1Cc1ccc(C2CC2)cc1 [velagliflozin, Velagliflozin]
- BHB reduction: 10 ×

From US20240398845A1, “USE OF SGLT-2 INHIBITORS FOR THE PREVENTION AND/OR TREATMENT OF CARDIAC DISEASES IN NON-HUMAN MAMMALS EXCLUDING FELINES, IN PARTICULAR CANINES” (BOEHRINGER INGELHEIM VETMEDICA GMBH, priority 2021, published 2024)
